# Results are given in words; binding and its absence hold for the method and conditions named. For some assays here: Binding seen in cells or lysates may run through a third protein. Some binding calls cover weakened binding; strength is not graded here. Tags and fused reporters may be left off the sequences shown.
# T1: FLAG-tagged human atlastin-1 (ATL1-FLAG) (human) (UniProt Q8WXF7)
# T1 sequence: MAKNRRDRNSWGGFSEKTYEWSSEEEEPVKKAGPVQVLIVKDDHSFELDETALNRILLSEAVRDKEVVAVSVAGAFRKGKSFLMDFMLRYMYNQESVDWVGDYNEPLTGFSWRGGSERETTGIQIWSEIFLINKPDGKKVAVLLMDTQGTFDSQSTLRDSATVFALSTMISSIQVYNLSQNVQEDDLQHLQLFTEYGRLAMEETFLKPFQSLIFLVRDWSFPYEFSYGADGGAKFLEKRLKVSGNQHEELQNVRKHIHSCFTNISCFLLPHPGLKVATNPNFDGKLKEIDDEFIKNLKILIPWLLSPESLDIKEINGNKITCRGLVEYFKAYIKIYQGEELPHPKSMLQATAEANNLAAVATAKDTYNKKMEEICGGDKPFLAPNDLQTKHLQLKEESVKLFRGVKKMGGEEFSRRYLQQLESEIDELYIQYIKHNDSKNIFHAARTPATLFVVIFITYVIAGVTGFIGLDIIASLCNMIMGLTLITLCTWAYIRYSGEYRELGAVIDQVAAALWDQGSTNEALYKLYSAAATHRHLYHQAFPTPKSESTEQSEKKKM
# Assays:
# [1] = target: T1, FLAG-tagged human atlastin-1 (ATL1-FLAG) (human); test: SEC
# [2] = target: T1, FLAG-tagged human atlastin-1 (ATL1-FLAG) (human); test: co-IP
binder,measurement,setting,value
"SBP-tagged REEP1 (REEP1-SBP) (protein, UniProt Q9H902 1-201) MVSWIISRLVVLIFGTLYPAYYSYKAVKSKDIKEYVKWMMYWIIFALFTTAETFTDIFLCWFPFYYELKIAFVAWLLSPYTKGSSLLYRKFVHPTLSSKEKEIDDCLVQAKDRSYDALVHFGKRGLNVAATAAVMAASKGQGALSERLRSFSMQDLTTIRGDGAPAPSGPPPPGSGRASGKHGQPKMSRSASESASSSGTA",binding,[1],binds
same,binding,[2],binds
